The target of test [1] is human BCMA-hIgG Fc fusion protein (human APRIL-R-hIgGFc, pJST538) (human). The test can be described thus: BIAcore, hBCMA-Ig on CM5 chip, ligand injected at 30 ug/ml.
The target is the same in test [2]. Nature of the test: immunoprecipitation from conditioned media with ProtG-Sepharose, anti-FLAG M2 blot.
The target is the same in test [3]. The test can be described thus: ELISA, receptor-Fc coated, FLAG-tagged ligand detected with anti-FLAG M2.

Chains of the proteins cited; added tags and fusions are not shown. Residues count along the entry.
UniProt Q9Y275, residues 136-285: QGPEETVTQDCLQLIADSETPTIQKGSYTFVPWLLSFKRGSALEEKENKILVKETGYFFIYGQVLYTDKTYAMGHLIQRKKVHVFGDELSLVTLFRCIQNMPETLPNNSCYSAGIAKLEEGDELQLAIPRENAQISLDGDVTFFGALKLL
UniProt Q9WU72, residues 127-309: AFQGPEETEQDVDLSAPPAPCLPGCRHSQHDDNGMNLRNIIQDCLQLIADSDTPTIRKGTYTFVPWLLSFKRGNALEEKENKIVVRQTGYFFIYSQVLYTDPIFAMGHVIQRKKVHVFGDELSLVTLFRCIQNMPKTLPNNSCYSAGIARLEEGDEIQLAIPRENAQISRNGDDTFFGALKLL

These are yes or no findings as the source states them, for the method shown. Some entries that bind do so weakly or less than the wild type.

Regarding “FLAG-hBAFF (from UniProt Q9Y275 136-285) (ligand)”, the binding result in test [1], in test [2] and in test [3] was “binds” in each case.

As for “FLAG-mBAFF (from UniProt Q9WU72 127-309) (ligand)”, in test [1], the binding result was “binds”.

Values taken from patent US20030082175A1.
